Laboratory results reported in publication PMC10280842.
No constants are given. Whether binding was seen depends on the method and setting. Binding seen in cells or lysates may run through a third protein. Some results given as binding are weak or reduced against the parent protein; the word gives no strength.

Amino acid sequences for entries named in this document (tags omitted).
UniProt P01106: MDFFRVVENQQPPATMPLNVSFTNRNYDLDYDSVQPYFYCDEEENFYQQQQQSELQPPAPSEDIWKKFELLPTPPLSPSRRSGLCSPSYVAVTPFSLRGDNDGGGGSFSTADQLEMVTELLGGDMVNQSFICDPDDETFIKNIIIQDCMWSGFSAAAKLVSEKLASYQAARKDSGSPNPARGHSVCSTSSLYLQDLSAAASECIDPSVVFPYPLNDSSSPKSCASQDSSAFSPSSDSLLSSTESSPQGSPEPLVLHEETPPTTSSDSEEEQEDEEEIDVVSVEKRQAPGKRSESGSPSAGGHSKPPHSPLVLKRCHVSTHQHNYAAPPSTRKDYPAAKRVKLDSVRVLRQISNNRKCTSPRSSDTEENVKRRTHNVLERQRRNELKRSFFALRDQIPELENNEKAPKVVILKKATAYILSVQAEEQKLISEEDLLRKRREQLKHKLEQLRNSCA
UniProt Q9UNS1: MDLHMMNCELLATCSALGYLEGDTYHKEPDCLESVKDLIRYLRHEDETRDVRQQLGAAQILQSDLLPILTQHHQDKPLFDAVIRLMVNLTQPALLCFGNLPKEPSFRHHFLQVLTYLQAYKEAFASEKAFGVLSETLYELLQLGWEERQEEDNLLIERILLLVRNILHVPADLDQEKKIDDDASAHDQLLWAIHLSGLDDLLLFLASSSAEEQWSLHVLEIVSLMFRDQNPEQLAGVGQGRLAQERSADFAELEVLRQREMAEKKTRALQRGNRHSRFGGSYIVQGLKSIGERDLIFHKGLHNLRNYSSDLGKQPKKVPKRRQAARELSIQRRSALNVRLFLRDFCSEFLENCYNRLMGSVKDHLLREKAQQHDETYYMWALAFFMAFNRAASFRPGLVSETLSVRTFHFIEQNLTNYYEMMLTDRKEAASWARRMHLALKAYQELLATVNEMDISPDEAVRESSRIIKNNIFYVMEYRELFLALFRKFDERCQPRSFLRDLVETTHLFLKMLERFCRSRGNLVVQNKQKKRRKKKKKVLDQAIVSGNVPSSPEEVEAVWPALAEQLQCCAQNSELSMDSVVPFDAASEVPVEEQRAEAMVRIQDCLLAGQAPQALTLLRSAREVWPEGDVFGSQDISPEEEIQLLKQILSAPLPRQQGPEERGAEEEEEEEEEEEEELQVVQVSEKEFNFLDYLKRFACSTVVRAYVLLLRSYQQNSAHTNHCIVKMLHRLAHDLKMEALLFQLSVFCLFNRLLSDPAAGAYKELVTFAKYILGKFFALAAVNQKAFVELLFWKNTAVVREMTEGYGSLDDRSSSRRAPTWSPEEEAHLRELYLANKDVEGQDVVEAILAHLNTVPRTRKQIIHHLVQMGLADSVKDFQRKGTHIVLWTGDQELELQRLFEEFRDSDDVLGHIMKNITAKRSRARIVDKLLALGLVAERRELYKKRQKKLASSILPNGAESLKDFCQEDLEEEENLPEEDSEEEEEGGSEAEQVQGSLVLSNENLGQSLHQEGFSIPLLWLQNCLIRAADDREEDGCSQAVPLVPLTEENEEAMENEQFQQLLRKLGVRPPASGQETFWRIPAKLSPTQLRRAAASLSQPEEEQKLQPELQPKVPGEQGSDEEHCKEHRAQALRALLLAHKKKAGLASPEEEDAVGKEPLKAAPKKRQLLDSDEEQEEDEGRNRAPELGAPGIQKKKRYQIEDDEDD

Target: c-Myc (human (endogenous in MCF-7 and BT-20)) (UniProt P01106)
Assay: co-IP; lysates of MCF-7 and BT-20 cells; antibody added to the lysate 1 h at room temperature, then protein A/G beads 1 h at room temperature (magnetic protein A/G IP/Co-IP kit); washed with lysis buffer; Western blot

- binding: binds
Sequence: TIMELESS (from UniProt Q9UNS1 1-1208)
